Our source for the z-score values is PubChem BioAssay AID1347423 (Functional Genomics Laboratory (NCATS/FGL), 2020).

The campaign covered roughly 52,000 sequences. About 210 (0.4%) were called active.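 Rule for the calls: active = gene whose silencing raises cell survival under the drug, median off-target-corrected z-score across its silencing RNAs 2 or more; inactive = the rest.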 The list shows a part of the results.

A short description of this test: Resistance to Poly (ADP-Ribose) Polymerase inhibitor: Gene Identification via Genome-wide siRNA Screen. Particulars: mouse BRCA2 R2336H ES cells, olaparib, CellTiter-Glo viability; hits give high values. A digest of the protocol:
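Mouse BRCA2 R2336H ES cells were reverse-transfected with siRNA (20 nM final), treated at 48 h with 500 nM olaparib, and read by CellTiter-Glo after 72 h. Scores: MAD-based z per siRNA, median per gene, seed off-target correction.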
For orientation: In ATP-based viability assays light output follows the ATP content of the culture.
For the sequence CCACCCUGCCUAGAAACUUTT against Tmem8, the z-score was inactive: -0.429.

Consider CCAUAAUUCAGCUAGACCUTT against Axin1, for which the z-score was inactive: 0.526.

Regarding “GGCAUUGAGAUGAAAUGAATT against 4933427E11Rik”, the z-score is inactive: 0.618.

As to “GGAGUUCUUCGUUUCCCGATT against E330017E16”, the z-score is inactive: -0.179.

With “CCGUGGAUUGUGGAAUAAUTT against E430012M05Rik”, the z-score was inactive: 0.194.

As to “GGUGAACACCGUUCAGUUUTT against 1500041N16Rik”, the z-score is inactive: 0.537.

Turning to CCAGAUUUUUACCAUGAAGTT against Slc2a5, the z-score is inactive: 1.67.

Take CCCAUUGGAACUGCUGUAATT against BC019776: the z-score is inactive: 1.61.

With “GGUAUAUCCCUCACAAAAGTT against D330014H01Rik”, the z-score was inactive: 0.996.

In the case of CGGGAUAUUAGGUUAUUCCTT against Csad, the z-score was inactive: 0.199.

Consider “GCCCAUCCCUUCCUUACGATT against C330027G06Rik”, for which the z-score was inactive: 1.48.

As to GGAUGUCACUCUUGCAUUGTT against Olfr948, the z-score is inactive: -1.43.

Regarding CCUACCCAAACCUACUAAATT against Gpt2, the z-score is inactive: -0.724.

As to GGACAGCAGUCAGGAGACATT against BC017158, the z-score is inactive: -0.365.

GACAGGUCAUGAAAAUGAGTT against Smurf2: the z-score was inactive: -0.0544.

For GGAUCGUGAGGAUCAAUCCTT against Myh14, the z-score is inactive: 0.224.

Turning to GGAAAGAAACAAGACAGAATT against Cul3, the z-score is inactive: -1.12.

For the sequence GCCAACAAUAUAAUUCAAGTT against Abca5, the z-score is inactive: 1.93.

Turning to “GGCUAUUGAGCUCUUUGUCTT against 1810019P04Rik”, the z-score is inactive: -1.75.

As for GGUACUGCUGCUUCAGCAUTT against Palm2, the z-score was inactive: 0.471.

On to GGCUGAAAGCAAAACUUAATT against Klhl4, for which the z-score is inactive: 1.3.

For GGUUUUUACUUUUUGGUCCTT against Tm4sf11, the z-score is inactive: 0.169.

Take “GGCAUGUUCUCUAAGGAAGTT against C920025J10”: the z-score was inactive: 0.264.

As to GGAUGAGCUAAAUAAAGCUTT against Slc6a15, the z-score is inactive: 1.09.

For GUUCUUCUCUGUUGGUGCUTT against V1rc18, the z-score was inactive: 3.03.

On to GGAAAUAAAUGAGUGUUUGTT against Slc35c2, for which the z-score was inactive: 0.62.

For GCAAUGUGUAUCAGCCGACTT against Gprc5b, the z-score was inactive: -0.195.

Take GGACUUUGUAACUAAUACCTT against Slco2b1: the z-score is inactive: -0.309.
